# Taken from: PubChem BioAssay AID1259308 (NCATS, 2017)
# Test: 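Genes whose loss raises luciferase production in HEK293 cells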 (primary screen)
# Cell system: human HEK293 embryonic kidney cells stably expressing firefly luciferase (HEK-CMV-Luc2-Hygro)
# Reagent: single siRNA against human genes, 0.8 pmol siRNA per well
# Duration: 72 h
# Measured: 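Reporter luminescence and viable-cell signal on separate replicate plates, given as percent of non-targeting control and median/MAD z-scores, plus per-cell luciferase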
# Reading the numbers: total luciferase, z-score and total luciferase, % of control: higher = more reporter protein produced; luciferase per cell, z-score: higher = more reporter output per viable cell; viable cells, % of control: higher = more viable cells
# Rule for the call: 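Active when the median/MAD z-score for overall luciferase is greater than 3; a gene was taken forward for validation with new siRNAs if at least two of its three siRNAs passed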
# Meaning of the calls: active = raised luciferase; inactive = no rise
# The deposit covers about 59,000 reagents; this is an unselected part. Over the whole deposit, about 1,510 (2.6%) are marked active. 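Calls use total luciferase alone and ignore viability, so some active siRNAs may act by altering cell number.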 Unmarked entries are inactive.
gene,PubChem SID,"total luciferase, z-score","total luciferase, % of control","luciferase per cell, z-score","viable cells, % of control"
SLFN5,SID160759913,-0.282,76.3,-0.528,98
SLFN5,SID160759914,0.315,88.2,0.328,90.4
SLFN5,SID160759916,1.01,102,0.753,93.5
RPL29P12,SID160724985,0.595,93.7,1.89,63.6
RPL29P12,SID160724986,0.365,89.1,0.973,77.1
RPL29P12,SID160762895,0.517,92.2,0.844,82.5
AHSA1,SID160728819,0.643,94.7,0.621,89.8
AHSA1,SID160728820,-1.66,48.9,-0.794,67.3
AHSA1,SID160728821,-1.27,56.7,-0.607,74.3
GCLC,SID160771241,0.861,99,0.531,96.2
GCLC,SID160771252,-0.044,81,-0.112,93.2
GCLC,SID160771263,-1.04,61.3,-0.75,83.4
ETV6,SID160762320,-2.03,41.6,-0.62,54.7
ETV6,SID160762330,0.165,85.2,0.307,87.8
ETV6,SID160762339,-0.0168,81.6,-0.405,101
PSME1,SID160715268,-0.566,70.6,-0.698,94.8
PSME1,SID160715269,2.05,123,2.24,76
PSME1,SID160715270,2.24,127,1.89,86
BLM,SID160727423,0.565,93.1,0.577,89.4
BLM,SID160727458,0.562,93.1,-0.365,114
BLM,SID160727498,-1.25,56.9,-1.53,95.3
CCDC73,SID160768249,0.32,88.3,0.372,89.4
CCDC73,SID160768250,0.106,84,-0.0338,94.7
CCDC73,SID160768251,1.11,104,0.849,92.9
CIMAP1C,SID160759872,-0.383,74.3,-0.135,86
CIMAP1C,SID160759873,0.782,97.4,1.25,78.4
CIMAP1C,SID160759874,-2.26,36.9,-2.67,83.3
PPP3CA,SID160714825,-0.399,73.9,-0.654,98.1
PPP3CA,SID160714826,-0.276,76.4,-0.769,105
PPP3CA,SID160714827,0.266,87.2,-0.301,105
STEAP4,SID160749196,-0.0523,80.8,-0.479,102
STEAP4,SID160749197,-0.439,73.2,-0.693,98.1
STEAP4,SID160749198,0.927,100,1.33,79
EML5,SID160759848,0.487,91.6,0.582,87.8
EML5,SID160759850,-0.138,79.1,-0.231,94
EML5,SID160759851,-0.9,64,-1.24,99.1
PRKAG1,SID160714913,-0.549,71,-1.03,104
PRKAG1,SID160714914,-0.7,68,-0.315,82.5
PRKAG1,SID160714915,0.835,98.5,0.302,102
SNRPD3,SID160717133,6.41 (active),209,4.67,68.5
SNRPD3,SID160717134,2.67,135,3.46,60.6
SNRPD3,SID160717135,1.79,117,1.41,90.5
TM4SF4,SID160718148,-1.37,54.5,-0.271,65.5
TM4SF4,SID160718150,-0.264,76.6,0.104,83.3
TM4SF4,SID160718151,-1.56,50.9,-1.22,78.3
GAS6,SID160730923,-0.614,69.7,-1,101
GAS6,SID160769394,1.89,119,2.27,73.5
GAS6,SID160769404,0.673,95.3,-0.0991,109
SRCIN1,SID160750487,4.26 (active),167,2.68,91.9
SRCIN1,SID160750488,1.38,109,0.654,103
SRCIN1,SID160750489,0.174,85.3,-0.4,106
CSNK1G2-AS1,SID160762285,-0.14,79.1,-0.167,92.4
CSNK1G2-AS1,SID160762286,-0.535,71.2,-0.373,87.8
CSNK1G2-AS1,SID160762287,-0.268,76.6,-0.797,106
MARCHF11,SID160767929,0.352,88.9,-0.12,103
MARCHF11,SID160767930,0.964,101,0.769,92.2
MARCHF11,SID160767932,-0.127,79.4,-0.654,105

Called active (from the list above):
gene,PubChem SID,"total luciferase, z-score","total luciferase, % of control","luciferase per cell, z-score","viable cells, % of control"
SNRPD3,SID160717133,6.41 (active),209,4.67,68.5
SRCIN1,SID160750487,4.26 (active),167,2.68,91.9
